Results taken from PMC8406222.
No constants are given. Whether binding was seen depends on the method and setting. Some results given as binding are weak or reduced against the parent protein; the word gives no strength.

Sequences of proteins named here, by UniProt entry; tags and fusion partners are left off.
UniProt P9WN61: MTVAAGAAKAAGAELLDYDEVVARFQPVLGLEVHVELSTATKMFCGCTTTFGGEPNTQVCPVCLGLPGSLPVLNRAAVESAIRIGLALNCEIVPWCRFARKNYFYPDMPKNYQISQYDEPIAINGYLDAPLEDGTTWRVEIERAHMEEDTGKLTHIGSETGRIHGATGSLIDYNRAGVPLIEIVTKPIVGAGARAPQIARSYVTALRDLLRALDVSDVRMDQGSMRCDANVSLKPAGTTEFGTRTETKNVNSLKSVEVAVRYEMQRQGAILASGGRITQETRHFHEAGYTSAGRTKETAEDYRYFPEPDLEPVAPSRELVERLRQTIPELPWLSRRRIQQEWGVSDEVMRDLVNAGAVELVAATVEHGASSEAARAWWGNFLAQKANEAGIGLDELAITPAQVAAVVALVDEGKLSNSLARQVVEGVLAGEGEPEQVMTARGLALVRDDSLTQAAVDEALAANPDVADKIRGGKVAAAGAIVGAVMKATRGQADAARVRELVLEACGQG
UniProt P9WQA1: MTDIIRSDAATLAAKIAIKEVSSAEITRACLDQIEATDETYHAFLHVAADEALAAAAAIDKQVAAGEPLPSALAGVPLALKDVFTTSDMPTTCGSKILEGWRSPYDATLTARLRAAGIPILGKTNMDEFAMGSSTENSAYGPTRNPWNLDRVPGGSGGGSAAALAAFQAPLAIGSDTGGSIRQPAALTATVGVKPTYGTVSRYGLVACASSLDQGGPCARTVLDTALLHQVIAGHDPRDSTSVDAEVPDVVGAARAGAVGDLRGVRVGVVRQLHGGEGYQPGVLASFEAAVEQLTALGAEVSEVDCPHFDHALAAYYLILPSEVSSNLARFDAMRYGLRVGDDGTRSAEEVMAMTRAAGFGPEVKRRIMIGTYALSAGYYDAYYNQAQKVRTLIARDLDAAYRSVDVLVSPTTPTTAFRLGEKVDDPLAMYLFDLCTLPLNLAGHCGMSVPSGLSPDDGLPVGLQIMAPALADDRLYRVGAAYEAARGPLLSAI

Target: M. tuberculosis GatB with C-terminal 6xHis tag (M. tuberculosis) (UniProt P9WN61)
Test: tandem affinity co-purification (Ni-NTA, then Strep-Tactin)

## M. tuberculosis GatA, wild type (from UniProt P9WQA1 1-494)
  binding: binds
